# Reference: patent US20230372302A1 (priority 2019, published 2023)
# The chains behind the UniProt entries cited, without tags or fusion partners.
# UniProt Q05940, whole entry: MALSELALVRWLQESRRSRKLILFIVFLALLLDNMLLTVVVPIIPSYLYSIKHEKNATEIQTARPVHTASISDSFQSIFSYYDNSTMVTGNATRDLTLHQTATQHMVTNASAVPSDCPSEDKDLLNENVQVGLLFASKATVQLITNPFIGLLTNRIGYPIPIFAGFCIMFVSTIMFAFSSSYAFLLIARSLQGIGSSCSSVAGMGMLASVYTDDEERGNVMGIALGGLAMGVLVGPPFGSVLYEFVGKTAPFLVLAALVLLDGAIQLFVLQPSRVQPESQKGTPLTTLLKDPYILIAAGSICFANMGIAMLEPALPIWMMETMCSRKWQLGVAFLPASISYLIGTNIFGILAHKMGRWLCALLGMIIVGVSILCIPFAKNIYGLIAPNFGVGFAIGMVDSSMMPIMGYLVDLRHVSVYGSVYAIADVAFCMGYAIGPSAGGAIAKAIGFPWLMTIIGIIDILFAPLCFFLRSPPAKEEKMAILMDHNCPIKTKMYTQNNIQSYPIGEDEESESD
# Columns and labels:
# [1] = biological target: T1, recombinant human VMAT2 transporters (Homo sapiens, UniProt Q05940); assay type: binding
# T1 construct: expressed in transfected cells; host or cells: HEK-293
# [2] = tested on: vocal cords and respiratory muscles of rats; settings: rat, in vivo
compound,measurement,setting,value
CN1CC[C@]23c4c5ccc(O)c4O[C@H]2[C@@H](O)C=C[C@H]3[C@H]1C5 [morphine],binding to VMAT2 transporter,[1],not morphine
same,vocal cord closure and chest wall rigidity effect (specific to F/FA),[2],not demonstrated
